Results taken from paper PMC11670933.
Results are given in words; binding and its absence hold for the method and conditions named. Binding seen in cells or lysates may run through a third protein. These calls come from enrichment with a bait or labelling near it, and not all partners need be listed. No binding means not detected with the bait.

B1: TXNIP (protein, UniProt Q9H3M7 1-391)
chain: MVMFKKIKSFEVVFNDPEKVYGSGEKVAGRVIVEVCEVTRVKAVRILACGVAKVLWMQGSQQCKQTSEYLRYEDTLLLEDQPTGENEMVIMRPGNKYEYKFGFELPQGPLGTSFKGKYGCVDYWVKAFLDRPSQPTQETKKNFEVVDLVDVNTPDLMAPVSAKKEKKVSCMFIPDGRVSVSARIDRKGFCEGDEISIHADFENTCSRIVVPKAAIVARHTYLANGQTKVLTQKLSSVRGNHIISGTCASWRGKSLRVQKIRPSILGCNILRVEYSLLIYVSVPGSKKVILDLPLVIGSRSGLSSRTSSMASRTSSEMSWVDLNIPDTPEAPPCYMDVIPEDHRLESPTTPLLDDMDGSQDSPIFMYAPEFKFMPPPTYTEVDPCILNNNVQ
B2: MED17 (protein, UniProt Q9NVC6 1-651)
chain: MSGVRAVRISIESACEKQVHEVGLDGTETYLPPLSMSQNLARLAQRIDFSQGSGSEEEEAAGTEGDAQEWPGAGSSADQDDEEGVVKFQPSLWPWDSVRNNLRSALTEMCVLYDVLSIVRDKKFMTLDPVSQDALPPKQNPQTLQLISKKKSLAGAAQILLKGAERLTKSVTENQENKLQRDFNSELLRLRQHWKLRKVGDKILGDLSYRSAGSLFPHHGTFEVIKNTDLDLDKKIPEDYCPLDVQIPSDLEGSAYIKVSIQKQAPDIGDLGTVNLFKRPLPKSKPGSPHWQTKLEAAQNVLLCKEIFAQLSREAVQIKSQVPHIVVKNQIISQPFPSLQLSISLCHSSNDKKSQKFATEKQCPEDHLYVLEHNLHLLIREFHKQTLSSIMMPHPASAPFGHKRMRLSGPQAFDKNEINSLQSSEGLLEKIIKQAKHIFLRSRAAATIDSLASRIEDPQIQAHWSNINDVYESSVKVLITSQGYEQICKSIQLQLNIGVEQIRVVHRDGRVITLSYQEQELQDFLLSQMSQHQVHAVQQLAKVMGWQVLSFSNHVGLGPIESIGNASAITVASPSGDYAISVRNGPESGSKIMVQFPRNQCKDLPKSDVLQDNKWSHLRGPFKEVQWNKMEGRNFVYKMELLMSALSPCLL
B3: MED26 (protein, UniProt O95402 1-600)
chain: MTAAPASPQQIRDRLLQAIDPQSNIRNMVAVLEVISSLEKYPITKEALEETRLGKLINDVRKKTKNEELAKRAKKLLRSWQKLIEPAHQHEAALRGLAGATGSANGGAHNCRPEVGAAGPPRSIHDLKSRNDLQRLPGQRLDRLGSRKRRGDQRDLGHPGPPPKVSKASHDPLVPNSSPLPTNGISGSPESFASSLDGSGHAGPEGSRLERDENDKHSGKIPVNAVRPHTSSPGLGKPPGPCLQPKASVLQQLDRVDETPGPPHPKGPPRCSFSPRNSRHEGSFARQQSLYAPKGSVPSPSPRPQALDATQVPSPLPLAQPSTPPVRRLELLPSAESPVCWLEQPESHQRLAGPGCKAGLSPAEPLLSRAGFSPDSSKADSDAASSGGSDSKKKKRYRPRDYTVNLDGQVAEAGVKPVRLKERKLTFDPMTRQIKPLTQKEPVRADSPVHMEQQSRTELDKQEAKASLQSPFEQTNWKELSRNEIIQSYLSRQSSLLSSSGAQTPGAHHFMSEYLKQEESTRQGARQLHVLVPQSPPTDLPGLTREVTQDDLDRIQASQWPGVNGCQDTQGNWYDWTQCISLDPHGDDGRLNILPYVCLD
B4: MED9 (protein, UniProt Q9NWA0 1-146)
chain: MASAGVAAGRQAEDVLPPTSDQPLPDTKPLPPPQPPPVPAPQPQQSPAPRPQSPARAREEENYSFLPLVHNIIKCMDKDSPEVHQDLNALKSKFQEMRKLISTMPGIHLSPEQQQQQLQSLREQVRTKNELLQKYKSLCMFEIPKE
B5: MED8 (protein, UniProt Q96G25 1-268)
chain: MQREEKQLEASLDALLSQVADLKNSLGSFICKLENEYGRLTWPSVLDSFALLSGQLNTLNKVLKHEKTPLFRNQVIIPLVLSPDRDEDLMRQTEGRVPVFSHEVVPDHLRTKPDPEVEEQEKQLTTDAARIGADAAQKQIQSLNKMCSNLLEKISKEERESESGGLRPNKQTFNPTDTNALVAAVAFGKGLSNWRPSGSSGPGQAGQPGAGTILAGTSGLQQVQMAGAPSQQQPMLSGVQMAQAGQPGKMPSGIKTNIKSASMHPYQR
B6: MED25 (protein, UniProt Q71SY5 1-747)
chain: MVPGSEGPARAGSVVADVVFVIEGTANLGPYFEGLRKHYLLPAIEYFNGGPPAETDFGGDYGGTQYSLVVFNTVDCAPESYVQCHAPTSSAYEFVTWLDGIKFMGGGGESCSLIAEGLSTALQLFDDFKKMREQIGQTHRVCLLICNSPPYLLPAVESTTYSGCTTENLVQQIGERGIHFSIVSPRKLPALRLLFEKAAPPALLEPLQPPTDVSQDPRHMVLVRGLVLPVGGGSAPGPLQSKQPVPLPPAAPSGATLSAAPQQPLPPVPPQYQVPGNLSAAQVAAQNAVEAAKNQKAGLGPRFSPITPLQQAAPGVGPPFSQAPAPQLPPGPPGAPKPPPASQPSLVSTVAPGSGLAPTAQPGAPSMAGTVAPGGVSGPSPAQLGAPALGGQQSVSNKLLAWSGVLEWQEKPKPASVDANTKLTRSLPCQVYVNHGENLKTEQWPQKLIMQLIPQQLLTTLGPLFRNSRMVQFHFTNKDLESLKGLYRIMGNGFAGCVHFPHTAPCEVRVLMLLYSSKKKIFMGLIPYDQSGFVNGIRQVITNHKQVQQQKLEQQQRGMGGQQAPPGLGPILEDQARPSQNLLQLRPPQPQPQGTVGASGATGQPQPQGTAQPPPGAPQGPPGAASGPPPPGPILRPQNPGANPQLRSLLLNPPPPQTGVPPPQASLHHLQPPGAPALLPPPHQGLGQPQLGPPLLHPPPAQSWPAQLPPRAPLPGQMLLSGGPRGPVPQPGLQPSVMEDDILMDLI
B7: MED20 (protein, UniProt Q9H944 1-212)
chain: MGVTCVSQMPVAEGKSVQQTVELLTRKLEMLGAEKQGTFCVDCETYHTAASTLGSQGQTGKLMYVMHNSEYPLSCFALFENGPCLIADTNFDVLMVKLKGFFQSAKASKIETRGTRYQYCDFLVKVGTVTMGPSARGISVEVEYGPCVVASDCWSLLLEFLQSFLGSHTPGAPAVFGNRHDAVYGPADTMVQYMELFNKIRKQQQVPVAGIR
B8: MED10 (protein, UniProt Q9BTT4 1-135)
chain: MAEKFDHLEEHLEKFVENIRQLGIIVSDFQPSSQAGLNQKLNFIVTGLQDIDKCRQQLHDITVPLEVFEYIDQGRNPQLYTKECLERALAKNEQVKGKIDTMKKFKSLLIQELSKVFPEDMAKYRSIRGEDHPPS
B9: CCNC (protein, UniProt P24863 1-283)
chain: MAGNFWQSSHYLQWILDKQDLLKERQKDLKFLSEEEYWKLQIFFTNVIQALGEHLKLRQQVIATATVYFKRFYARYSLKSIDPVLMAPTCVFLASKVEEFGVVSNTRLIAAATSVLKTRFSYAFPKEFPYRMNHILECEFYLLELMDCCLIVYHPYRPLLQYVQDMGQEDMLLPLAWRIVNDTYRTDLCLLYPPFMIALACLHVACVVQQKDARQWFAELSVDMEKILEIIRVILKLYEQWKNFDERKEMATILSKMPKPKPPPNSEGEQGPNGSQNSSYSQS

target: truncated human NOTCH2^ΔE-TurboID (human); assay: proximity labelling; TurboID fusions stably expressed in HT-29; 500 uM biotin for one hour; streptavidin beads; label-free quantitative mass spectrometry (DIA, Q-Exactive HF X), TurboID alone as control

Row | binding | Binder
1 | binds | B1
2 | binds | B2
3 | binds | B3
4 | binds | B4
5 | binds | B5
6 | binds | B6
7 | binds | B7
8 | binds | B8
9 | no binding | B9

target: truncated human NOTCH2^ΔERA-TurboID (human); assay: as above

Row | binding | Binder
10 | binds | B1
11 | binds | B2
12 | binds | B3
13 | binds | B4
14 | binds | B5
15 | binds | B6
16 | binds | B7
17 | binds | B8
18 | no binding | B9
